Results from one PubChem assay

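Genome-wide siRNA knockdown in TC32 Ewing sarcoma cells, comparing luciferase light from an NR0B1-promoter reporter with a CMV-promoter reporter 48 hours after transfection.
Each siRNA was applied at 20 nM.
A z-score of the log NR0B1-over-CMV signal, less the median of siRNAs with the same seed; more negative means a stronger specific loss of the NR0B1 reporter.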

This is part of the screen; most of the strongest results are not listed here.
Sequences are the guide (antisense) strand, without overhang.

| strand | target gene | seed-corrected z-score |
|---|---|---|
| `UAAUUUACUAGGCAUCAUC` | MBD2 | 1.759 |
| `UGUUGGUUGAUACCAAACC` | RUBCN | 0.1412 |
| `UUUCCUUUUAUGCAUCUCC` | BTN2A3P | -1.341 |
| `AACACUUAAUGGUCCAUCC` | DFNA5 | 0.07659 |
| `AUUGUCUUGACUGUAGUCC` | CEACAM5 | -0.4286 |
| `UCUUGUCUCUCAGCUGCUC` | CCDC187 | 0.2197 |
| `UUGGUAGUCUCCGUAGUAG` | LHX5 | 0.4707 |
| `UUGCUCUAAAUAUAAGCCG` | SAMD15 | -0.2114 |
| `ACUGACAUAAGGUAAGUGG` | CD27 | -0.002896 |
| `UUUCUUUGUACAUGCCUUG` | FPR1 | 0.4395 |
| `UACCUUAUUGGGAUAGCUG` | SLC35B4 | -0.06517 |
| `UUAGCUUCUUGAUUGCAAC` | MAPK8 | -0.7808 |
| `UUGCAUCUCACCACGUUGU` | LOXL1 | -0.5723 |
| `UACGUGACCCUGAACAGUC` | TTC21B | -0.4201 |
| `UCAGAGACGACAAAGAAGC` | OR8B12 | -0.03409 |
| `UCUUGUCUAACAUCUUCAG` | CAMKK1 | 0.05753 |
| `UUCGGUAAUUAUAAACACG` | MED14 | 0.1004 |
| `AAAUAGCCCACUGAUAUGG` | SLC22A5 | 0.004646 |
| `UUCUUGAAACUGGAUCUCA` | FAM156B | 0.185 |
| `AAUGUCUAUCUUGAAGGUC` | RAD23B | -1.389 |
| `UGGGAAAACAGGUAGGCGU` | CEL | -0.367 |
| `UCGGUUUUCAUACAUGCUC` | MAGI1 | 0.6561 |
| `UUAAUAGAAAGUGUAAGCU` | XKRY | 0.4004 |
| `UCAAUUAGGAGUGUGCUGC` | SYNPO | 0.9258 |
| `UAAGUAUUAAGGUUUUUGU` | VGLL4 | 0.3323 |
| `UUGUCCUCUAGAAUCUUUG` | PDHB | 0.2165 |
| `UUUGCGCCCACCAUCAGGU` | MYBPC3 | 0.1694 |
| `UUCAAGAUACUUCAAGCUG` | BLOC1S2 | 0.3888 |
| `ACAACGGUCAGGGCAUAGG` | PLP1 | -0.4349 |
| `UAGUAGUCAAUUCCUCUGG` | SLC12A4 | -1.199 |
| `UGAAUCUCUAGGGACUCUC` | CCDC87 | -0.8844 |
| `UUUUCUACGGCGAUCAAUG` | BCLAF1 | -0.24 |
| `UUCUUGACUGCAACUUCCC` | ZFP37 | -1.172 |
| `AAAUUGACUUGAUCUGUGC` | LANCL3 | 0.6368 |
| `UUGAGUAGAAGAAUCGUCG` | CDKN1B | -0.5419 |
| `UUCACAUCAUCCGCACUCU` | PVALB | -0.05413 |
| `AUGGUAGUGGAGACGGUGG` | SDC3 | 0.2878 |
| `UACUGUUCUGGGUUCACGG` | PIP4K2A | -0.6233 |
| `UGUACGUAGAAGGUCCUGG` | PLEKHA2 | 0.1746 |
| `UAAGCAUCAAUAAAGUCUC` | CYP2J2 | -0.09062 |
| `UCUGGGCUAUUGAACAUCC` | UBQLN4 | -0.04988 |
| `UUUUGAAAGCAGGGUACCC` | TEX37 | 0.06133 |
| `UCCAUGGAAAGCGACAGCC` | KLHL34 | 0.5745 |
| `UUCGCUUCAACAGCAUGCC` | AGAP1 | -0.1988 |
| `UGCUUUAGCAUGAACGUGU` | HDAC5 | -1.784 |
| `AAAUUAUCCACUGUUUUUG` | PPIB | 1.118 |
| `UAGGUACUCCAAACAGAGC` | MFSD4B | -0.06843 |
| `AGGUUGAUCAGGACUAAGG` | TTLL6 | -1.103 |
| `UUUGUUCCCGAAUUGGUCC` | NDUFAF2 | 1.526 |
| `UUCUCGUUCCAUCAAGUUC` | DNAAF1 | -0.2121 |
| `UGAAUAUUAGGCAAAACGC` | HIST1H2AB | 1.165 |
| `AAAGAUUCUCCCGAAGAGC` | CTNNAL1 | 0.6245 |
| `UUACGAAAAACAUCACAUG` | C14orf39 | -0.09435 |
| `UGUGAUGCAAGGACAAUAC` | CCDC103 | -0.2801 |
| `UAUUUAGCUUGUGCAUCCG` | BHLHA15 | 0.3584 |
| `UGAGUUUUUCCUUAGUCGC` | PDCD4 | 0.4296 |
| `UCAGGAGCACCAGAAUUCC` | BST2 | 2.248 |
| `ACUGAUUUUACUGUGCACC` | SYNDIG1 | 0.8228 |
| `UUCGUUCACUUUUCCAGCC` | CAMSAP1 | -0.1991 |
| `UACGUAAUUUCCCUGAUAG` | ZNF713 | -0.6241 |
| `UAGUGCGCAUCUGUCAUCC` | LOC729652 | 0.4315 |
| `UCUUUUCUUGGAGCGGUCC` | CCDC86 | 1.043 |
| `UAUACGAGAGAGUUCAAGC` | CXorf57 | -0.07663 |
| `UACGGUUCCACACCCACAG` | TMEM86B | 1.009 |
| `UUUAGAGCUAGUGUACUUG` | HIST1H2BB | 0.8886 |
| `AGACGAAUCACUUCCACGC` | ATP8B1 | 0.9273 |
| `AUCAGUACAAAGUCCCUUC` | VPS11 | 1.65 |
| `UCUCAGUCAGCUUUUUGCC` | GPD1 | 0.135 |
| `UCAUGAGGCCGUUCAAUCC` | TRPC6 | -0.2346 |
| `UGUAGUAAGAGAGCAAACC` | OSBP2 | 1.43 |
| `AAUCGUUUAAUAACGGCGG` | HBS1L | -0.3424 |
| `AACUCCUAAACUAUCAGCC` | EIF5B | 1.442 |
| `UGAGUUACCCGGGAGUUUC` | ZBTB39 | -0.2845 |
| `ACAGAGCUCAUGUAAAUUC` | RNF24 | 0.07387 |
| `UCGGAUCUCAGCAUAGAGC` | VPS33A | 1.428 |
| `AAAUUGGAGGCUAAUAAGC` | ZSCAN5A | 0.4299 |
| `AAACUGGAACUUAUACCCU` | FAM166B | -0.6221 |
| `AUGGAGAACUCAUUGAUCC` | FMOD | -1.728 |
| `UCCAGGUCCAGGAAAAAGC` | NT5C | -1.395 |
| `UGAUAUGAUACUUUCGCCC` | UGGT1 | 0.676 |
| `AGAGUUUGAACUCCAGACC` | TMTC1 | 1.249 |

6 of the entries, repeated:

strand,target gene,seed-corrected z-score
UACGUGACCCUGAACAGUC,TTC21B,-0.4201
UAGUAGUCAAUUCCUCUGG,SLC12A4,-1.199
UCUUUUCUUGGAGCGGUCC,CCDC86,1.043
UAGGUACUCCAAACAGAGC,MFSD4B,-0.06843
UCAGAGACGACAAAGAAGC,OR8B12,-0.03409
AGAGUUUGAACUCCAGACC,TMTC1,1.249

From PubChem BioAssay record AID1159506 (NCATS, 2015).